According to patent US12496272B1, “Stable epinephrine suspension formulation for inhalation with HFO propellant” (Amphastar Pharmaceuticals, Inc., priority 2024, dated 2025):

Experiment: Environmental properties of HFA and HFO propellants

## F/C=C/C(F)(F)F [HFO-1234ze(E), trans-1,3,3,3-tetrafluoropropene]
6 versus 1300
  GWP times lower than that of HFA-134a: approximately 200 times
6 versus 2900
  GWP times lower than that of HFA-227: approximately 500 times
